Here are results for three molecules from paper PMC4979047.

The chains behind the UniProt entries cited, without tags or fusion partners. Where a name states a change or a piece, a line headed by the entry shows the natural chain unless it says otherwise. A line that says so, or that is headed by a name, gives the form on record, which may keep a tag or linker. Residues count along the entry.
UniProt P35968: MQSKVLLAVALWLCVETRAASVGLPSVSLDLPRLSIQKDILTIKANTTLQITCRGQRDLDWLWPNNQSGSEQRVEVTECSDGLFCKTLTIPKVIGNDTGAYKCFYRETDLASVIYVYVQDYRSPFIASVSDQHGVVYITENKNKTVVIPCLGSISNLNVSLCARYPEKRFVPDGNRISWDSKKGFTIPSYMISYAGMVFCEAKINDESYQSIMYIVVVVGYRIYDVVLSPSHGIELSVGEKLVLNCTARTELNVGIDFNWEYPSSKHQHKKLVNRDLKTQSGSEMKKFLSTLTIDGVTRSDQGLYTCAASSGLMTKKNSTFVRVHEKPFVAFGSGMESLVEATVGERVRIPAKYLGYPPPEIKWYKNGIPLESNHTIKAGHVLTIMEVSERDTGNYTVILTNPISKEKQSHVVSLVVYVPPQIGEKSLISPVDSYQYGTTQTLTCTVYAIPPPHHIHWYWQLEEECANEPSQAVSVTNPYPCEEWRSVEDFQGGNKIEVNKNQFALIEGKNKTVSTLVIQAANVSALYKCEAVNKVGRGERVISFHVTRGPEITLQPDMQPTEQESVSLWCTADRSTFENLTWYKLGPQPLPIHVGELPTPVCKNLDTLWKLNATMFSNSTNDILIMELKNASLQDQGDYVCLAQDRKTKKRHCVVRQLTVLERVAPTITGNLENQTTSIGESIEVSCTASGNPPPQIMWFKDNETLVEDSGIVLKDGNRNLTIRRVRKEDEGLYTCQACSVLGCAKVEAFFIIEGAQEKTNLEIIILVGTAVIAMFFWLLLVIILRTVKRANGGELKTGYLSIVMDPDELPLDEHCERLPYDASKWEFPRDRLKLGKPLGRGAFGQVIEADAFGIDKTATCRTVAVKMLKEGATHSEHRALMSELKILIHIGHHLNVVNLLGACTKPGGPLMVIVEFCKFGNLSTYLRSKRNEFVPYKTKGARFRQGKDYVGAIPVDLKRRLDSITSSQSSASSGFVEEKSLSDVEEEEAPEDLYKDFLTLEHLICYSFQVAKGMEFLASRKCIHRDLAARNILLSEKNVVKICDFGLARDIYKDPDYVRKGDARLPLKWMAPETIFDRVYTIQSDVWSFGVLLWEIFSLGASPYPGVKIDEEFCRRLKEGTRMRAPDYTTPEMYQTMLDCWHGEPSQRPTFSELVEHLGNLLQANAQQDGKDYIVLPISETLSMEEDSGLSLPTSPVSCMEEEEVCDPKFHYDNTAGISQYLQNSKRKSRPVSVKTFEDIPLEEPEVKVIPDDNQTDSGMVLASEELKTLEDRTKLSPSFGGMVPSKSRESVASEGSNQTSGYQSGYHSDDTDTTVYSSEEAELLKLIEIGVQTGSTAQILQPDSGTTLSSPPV
VEGFR2, endogenous in HUVECs (human (endogenous in HUVEC)): residues 20-1356 of P35968
His-tagged VEGFR2 extracellular domain (1-746 amino acids): residues 20-746 of P35968

The target in one assay is T1, HA-tagged LECT2 (UniProt O14960).
T1 sequence: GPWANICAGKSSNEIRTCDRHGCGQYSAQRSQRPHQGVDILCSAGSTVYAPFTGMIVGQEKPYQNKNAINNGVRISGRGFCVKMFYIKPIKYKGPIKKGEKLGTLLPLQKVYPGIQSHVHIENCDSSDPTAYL
In words: co-IP; 293T cells co-transfected with LECT2-HA and VEGFR2-V5; lysates immunoprecipitated with an HA antibody, immunoblotted. (A western blot detects proteins with antibodies after separation by electrophoresis.)

For assay [1], the target named is His-tagged VEGFR2 extracellular domain (1-746 amino acids) (UniProt P35968). The experiment in a line: pull-down; in vitro binding assay: Fc-tagged rLECT2 and His-tagged VEGFR2 extracellular domain incubated, purified using a nickel-affinity column, washed precipitates western blotted; both purified.
Assay [2] has as its target VEGFR2, endogenous in HUVECs (human (endogenous in HUVEC)) (UniProt P35968). The experiment in a line: co-IP; HUVECs treated with control or LECT2 conditioned medium from 293T cells for 30 min; HUVEC lysates immunoprecipitated with an antibody as indicated.

Results are given in words; binding and its absence hold for the method and conditions named. For part of these data: In cells and extracts the contact can be indirect. Some results given as binding are weak or reduced against the parent protein; the word gives no strength. For part of these data: Tags and fused reporters may be left off the sequences shown.

“V5-tagged VEGFR2 (from UniProt P35968 20-1356) (receptor)”: the binding entry with HA-tagged LECT2 was “binds”.

“Fc-tagged recombinant human LECT2 protein (leukocyte cell-derived chemotaxin 2) (from UniProt O14960 19-151) (Fc fusion)”: in assay [1], the binding result is listed as “binds”.

B1: LECT2 in conditioned medium of 293T cells overexpressing LECT2 (protein, UniProt O14960 19-151)
chain: GPWANICAGKSSNEIRTCDRHGCGQYSAQRSQRPHQGVDILCSAGSTVYAPFTGMIVGQEKPYQNKNAINNGVRISGRGFCVKMFYIKPIKYKGPIKKGEKLGTLLPLQKVYPGIQSHVHIENCDSSDPTAYL
On to B1, for which the binding entry in assay [2] is “binds”.
